Data published in publication PMC5098153.
Residue numbers refer to the chain shown, from its start. No constants are given. Whether binding was seen depends on the method and setting. Binding seen in cells or lysates may run through a third protein. Some entries that bind do so weakly or less than the wild type.

Protein sequences, listed by entry. Tags and fused reporters are not part of them.
UniProt P17302: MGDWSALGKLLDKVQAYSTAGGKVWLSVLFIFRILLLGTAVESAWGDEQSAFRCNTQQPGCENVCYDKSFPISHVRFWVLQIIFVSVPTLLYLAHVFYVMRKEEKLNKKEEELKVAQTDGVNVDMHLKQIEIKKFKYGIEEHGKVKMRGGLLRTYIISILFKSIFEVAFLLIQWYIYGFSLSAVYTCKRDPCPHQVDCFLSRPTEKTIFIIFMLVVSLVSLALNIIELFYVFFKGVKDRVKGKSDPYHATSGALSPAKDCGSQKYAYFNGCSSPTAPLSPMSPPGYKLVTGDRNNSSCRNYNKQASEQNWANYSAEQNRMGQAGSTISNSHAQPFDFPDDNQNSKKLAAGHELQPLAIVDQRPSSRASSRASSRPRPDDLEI

How the values were obtained:
Test in all cases: co-IP; U373 MG lysates (1% NP-40 in PBS, protease inhibitors; 1 mg protein, pre-cleared) incubated with mouse anti-hepaCAM extracellular domain antibody (clone 419305) and protein G agarose overnight at 4 °C; four washes; blot for connexin 43; mouse IgG1 (MOPC-21) as negative control
[1] = target: T1, Wild-type hepaCAM/GlialCAM (UniProt Q14CZ8)
T1 sequence: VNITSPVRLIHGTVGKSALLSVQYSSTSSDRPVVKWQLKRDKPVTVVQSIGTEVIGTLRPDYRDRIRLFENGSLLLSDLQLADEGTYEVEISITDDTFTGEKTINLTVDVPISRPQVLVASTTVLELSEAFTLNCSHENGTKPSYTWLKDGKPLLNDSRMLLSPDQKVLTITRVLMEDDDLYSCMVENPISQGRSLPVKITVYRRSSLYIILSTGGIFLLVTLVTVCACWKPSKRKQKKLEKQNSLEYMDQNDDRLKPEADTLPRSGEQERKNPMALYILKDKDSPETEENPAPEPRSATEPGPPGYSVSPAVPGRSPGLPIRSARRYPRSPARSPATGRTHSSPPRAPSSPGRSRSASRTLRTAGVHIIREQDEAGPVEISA

GlialCAM-R92Q = target: T2, GlialCAM-R92Q (UniProt Q14CZ8)
T2 sequence: T1 sequence with R59Q

GlialCAM-R92W = target: T3, GlialCAM-R92W (UniProt Q14CZ8)
T3 sequence: T1 sequence with R59W

connexin 43 (from UniProt P17302 1-382) was tested, and the binding [1] was “binds”, the binding (GlialCAM-R92Q) was “binds weakly” and the binding (GlialCAM-R92W) was “binds weakly”.
